The supplement of paper PMC10849652
The other results are listed elsewhere or left out.

Protein sequences, listed by entry. Tags and fused reporters are not part of them. Lines headed by an entry give the natural chain unless they say otherwise; changes in a name come on top.
UniProt Q5SNV9: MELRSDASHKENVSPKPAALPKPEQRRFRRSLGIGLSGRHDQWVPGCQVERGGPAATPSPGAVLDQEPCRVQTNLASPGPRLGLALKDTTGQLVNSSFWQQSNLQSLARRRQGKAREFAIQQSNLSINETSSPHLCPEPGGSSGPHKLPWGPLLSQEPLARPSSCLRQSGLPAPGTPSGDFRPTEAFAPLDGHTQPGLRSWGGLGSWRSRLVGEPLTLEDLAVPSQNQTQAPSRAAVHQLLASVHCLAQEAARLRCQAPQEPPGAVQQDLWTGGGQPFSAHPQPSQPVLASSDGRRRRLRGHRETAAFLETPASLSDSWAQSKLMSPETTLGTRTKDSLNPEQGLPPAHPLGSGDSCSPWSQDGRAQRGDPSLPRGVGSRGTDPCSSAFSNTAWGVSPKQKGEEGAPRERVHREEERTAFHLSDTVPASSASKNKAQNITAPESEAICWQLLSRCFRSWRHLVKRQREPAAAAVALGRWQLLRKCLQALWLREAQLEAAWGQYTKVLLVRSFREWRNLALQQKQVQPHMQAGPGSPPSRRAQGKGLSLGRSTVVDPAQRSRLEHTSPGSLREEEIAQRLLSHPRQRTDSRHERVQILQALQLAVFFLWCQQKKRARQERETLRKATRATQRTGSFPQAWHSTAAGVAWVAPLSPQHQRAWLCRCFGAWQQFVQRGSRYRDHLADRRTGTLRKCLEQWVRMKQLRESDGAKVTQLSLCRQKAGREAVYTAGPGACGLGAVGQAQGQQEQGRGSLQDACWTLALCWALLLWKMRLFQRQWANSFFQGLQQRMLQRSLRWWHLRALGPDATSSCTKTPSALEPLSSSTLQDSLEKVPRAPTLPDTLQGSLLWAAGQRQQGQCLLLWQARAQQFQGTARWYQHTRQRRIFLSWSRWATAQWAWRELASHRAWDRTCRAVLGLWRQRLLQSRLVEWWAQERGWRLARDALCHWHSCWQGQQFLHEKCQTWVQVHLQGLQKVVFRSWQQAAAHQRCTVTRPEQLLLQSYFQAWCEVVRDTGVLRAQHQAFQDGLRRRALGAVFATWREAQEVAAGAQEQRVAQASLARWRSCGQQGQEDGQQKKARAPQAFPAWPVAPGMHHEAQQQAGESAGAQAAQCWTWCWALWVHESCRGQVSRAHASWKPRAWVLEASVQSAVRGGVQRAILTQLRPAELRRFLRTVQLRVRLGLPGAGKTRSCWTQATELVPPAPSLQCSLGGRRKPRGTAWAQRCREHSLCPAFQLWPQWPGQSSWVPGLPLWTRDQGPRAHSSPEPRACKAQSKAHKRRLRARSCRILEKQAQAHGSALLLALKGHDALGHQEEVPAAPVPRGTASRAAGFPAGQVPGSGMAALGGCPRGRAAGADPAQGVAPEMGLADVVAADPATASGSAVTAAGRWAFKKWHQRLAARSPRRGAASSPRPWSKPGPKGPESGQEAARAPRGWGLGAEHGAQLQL
UniProt P01031, whole entry, looked up: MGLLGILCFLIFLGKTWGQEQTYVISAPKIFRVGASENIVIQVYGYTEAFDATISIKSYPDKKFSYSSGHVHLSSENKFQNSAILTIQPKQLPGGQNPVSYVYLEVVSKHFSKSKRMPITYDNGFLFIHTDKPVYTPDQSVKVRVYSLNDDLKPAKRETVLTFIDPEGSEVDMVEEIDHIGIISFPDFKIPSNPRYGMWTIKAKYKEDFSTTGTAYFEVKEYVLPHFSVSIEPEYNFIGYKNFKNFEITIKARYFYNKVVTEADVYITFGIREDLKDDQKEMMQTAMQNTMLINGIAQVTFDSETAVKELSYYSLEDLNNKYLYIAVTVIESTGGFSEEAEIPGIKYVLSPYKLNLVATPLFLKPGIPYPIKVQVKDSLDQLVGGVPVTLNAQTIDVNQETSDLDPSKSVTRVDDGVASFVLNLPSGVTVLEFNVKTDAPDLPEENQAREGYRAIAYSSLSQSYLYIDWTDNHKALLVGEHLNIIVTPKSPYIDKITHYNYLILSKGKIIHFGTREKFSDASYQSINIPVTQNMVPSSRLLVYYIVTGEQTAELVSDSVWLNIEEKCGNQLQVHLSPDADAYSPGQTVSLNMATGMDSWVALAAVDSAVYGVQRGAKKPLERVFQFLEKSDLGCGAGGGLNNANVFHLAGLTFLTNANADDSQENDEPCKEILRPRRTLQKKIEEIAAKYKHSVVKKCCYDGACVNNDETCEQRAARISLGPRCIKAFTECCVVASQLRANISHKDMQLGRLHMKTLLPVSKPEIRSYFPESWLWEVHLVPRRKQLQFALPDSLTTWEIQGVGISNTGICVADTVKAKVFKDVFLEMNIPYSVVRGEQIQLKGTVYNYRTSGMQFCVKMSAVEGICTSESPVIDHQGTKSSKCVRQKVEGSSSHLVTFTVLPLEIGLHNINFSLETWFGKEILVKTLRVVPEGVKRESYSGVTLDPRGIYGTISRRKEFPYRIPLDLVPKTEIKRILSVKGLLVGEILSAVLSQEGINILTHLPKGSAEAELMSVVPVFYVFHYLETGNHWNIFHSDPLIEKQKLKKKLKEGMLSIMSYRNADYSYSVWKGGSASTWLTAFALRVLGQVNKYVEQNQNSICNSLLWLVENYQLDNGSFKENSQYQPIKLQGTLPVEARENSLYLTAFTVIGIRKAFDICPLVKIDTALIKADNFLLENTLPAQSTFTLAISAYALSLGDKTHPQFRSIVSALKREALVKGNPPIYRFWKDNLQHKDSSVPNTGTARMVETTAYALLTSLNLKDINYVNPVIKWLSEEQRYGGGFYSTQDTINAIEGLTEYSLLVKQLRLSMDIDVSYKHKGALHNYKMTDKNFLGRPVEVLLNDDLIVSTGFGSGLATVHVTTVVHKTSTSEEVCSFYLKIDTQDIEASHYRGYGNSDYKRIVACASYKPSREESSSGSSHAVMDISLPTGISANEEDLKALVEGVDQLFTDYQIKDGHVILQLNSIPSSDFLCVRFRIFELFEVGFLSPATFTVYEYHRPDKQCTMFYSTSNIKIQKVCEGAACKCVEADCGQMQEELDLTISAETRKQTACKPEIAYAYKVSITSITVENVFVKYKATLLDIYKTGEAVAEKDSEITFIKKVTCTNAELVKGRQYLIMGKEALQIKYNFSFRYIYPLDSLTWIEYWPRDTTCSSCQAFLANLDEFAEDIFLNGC
UniProt Q9UQM7, whole entry, looked up: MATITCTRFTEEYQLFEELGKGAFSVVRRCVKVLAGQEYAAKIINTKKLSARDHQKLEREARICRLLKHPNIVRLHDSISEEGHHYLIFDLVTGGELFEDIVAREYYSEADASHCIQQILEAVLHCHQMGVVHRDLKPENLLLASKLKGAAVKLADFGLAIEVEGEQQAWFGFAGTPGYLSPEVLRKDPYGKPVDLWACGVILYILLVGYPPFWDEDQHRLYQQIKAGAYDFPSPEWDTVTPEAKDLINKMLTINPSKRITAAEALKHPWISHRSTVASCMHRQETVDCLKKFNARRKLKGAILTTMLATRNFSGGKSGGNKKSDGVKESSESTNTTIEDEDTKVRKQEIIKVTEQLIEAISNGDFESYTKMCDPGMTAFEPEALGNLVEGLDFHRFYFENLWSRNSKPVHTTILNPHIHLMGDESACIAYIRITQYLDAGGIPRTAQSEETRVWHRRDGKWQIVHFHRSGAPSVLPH
UniProt Q96LW7: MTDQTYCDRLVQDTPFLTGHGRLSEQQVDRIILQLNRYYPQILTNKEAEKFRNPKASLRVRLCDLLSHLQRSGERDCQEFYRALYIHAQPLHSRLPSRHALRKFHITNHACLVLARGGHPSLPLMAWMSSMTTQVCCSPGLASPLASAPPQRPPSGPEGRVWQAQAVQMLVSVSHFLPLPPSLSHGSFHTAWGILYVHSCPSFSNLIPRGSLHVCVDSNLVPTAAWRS
UniProt Q9NSG2: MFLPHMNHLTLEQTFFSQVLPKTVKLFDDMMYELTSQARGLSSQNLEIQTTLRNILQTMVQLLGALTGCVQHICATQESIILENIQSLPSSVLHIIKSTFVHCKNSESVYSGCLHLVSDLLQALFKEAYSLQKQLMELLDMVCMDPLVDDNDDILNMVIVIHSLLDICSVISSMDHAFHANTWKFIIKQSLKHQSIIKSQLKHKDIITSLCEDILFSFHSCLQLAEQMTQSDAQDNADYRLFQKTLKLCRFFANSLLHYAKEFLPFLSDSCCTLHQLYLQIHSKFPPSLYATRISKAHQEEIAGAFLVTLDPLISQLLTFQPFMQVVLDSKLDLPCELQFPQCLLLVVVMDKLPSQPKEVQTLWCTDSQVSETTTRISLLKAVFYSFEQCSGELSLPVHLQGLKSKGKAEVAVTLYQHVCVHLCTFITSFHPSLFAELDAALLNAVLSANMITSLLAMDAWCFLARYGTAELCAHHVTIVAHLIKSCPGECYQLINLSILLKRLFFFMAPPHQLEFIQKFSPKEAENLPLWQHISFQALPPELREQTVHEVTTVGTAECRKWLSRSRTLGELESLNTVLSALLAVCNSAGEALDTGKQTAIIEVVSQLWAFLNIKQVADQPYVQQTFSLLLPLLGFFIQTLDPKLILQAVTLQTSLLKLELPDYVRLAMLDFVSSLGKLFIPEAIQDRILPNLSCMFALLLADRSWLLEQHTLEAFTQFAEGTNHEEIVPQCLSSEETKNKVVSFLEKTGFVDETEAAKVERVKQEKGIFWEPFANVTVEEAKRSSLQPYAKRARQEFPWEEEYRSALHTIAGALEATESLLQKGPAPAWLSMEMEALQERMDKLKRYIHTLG
UniProt Q13901: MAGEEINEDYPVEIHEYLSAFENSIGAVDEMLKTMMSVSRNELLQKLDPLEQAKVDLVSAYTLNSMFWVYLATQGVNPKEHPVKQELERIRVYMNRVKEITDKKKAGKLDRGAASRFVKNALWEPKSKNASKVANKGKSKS
UniProt P27482, whole entry, looked up: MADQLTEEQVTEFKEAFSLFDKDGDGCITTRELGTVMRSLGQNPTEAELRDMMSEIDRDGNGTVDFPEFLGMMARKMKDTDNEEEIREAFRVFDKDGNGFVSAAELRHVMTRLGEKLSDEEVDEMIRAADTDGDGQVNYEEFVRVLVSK
UniProt Q9Y297: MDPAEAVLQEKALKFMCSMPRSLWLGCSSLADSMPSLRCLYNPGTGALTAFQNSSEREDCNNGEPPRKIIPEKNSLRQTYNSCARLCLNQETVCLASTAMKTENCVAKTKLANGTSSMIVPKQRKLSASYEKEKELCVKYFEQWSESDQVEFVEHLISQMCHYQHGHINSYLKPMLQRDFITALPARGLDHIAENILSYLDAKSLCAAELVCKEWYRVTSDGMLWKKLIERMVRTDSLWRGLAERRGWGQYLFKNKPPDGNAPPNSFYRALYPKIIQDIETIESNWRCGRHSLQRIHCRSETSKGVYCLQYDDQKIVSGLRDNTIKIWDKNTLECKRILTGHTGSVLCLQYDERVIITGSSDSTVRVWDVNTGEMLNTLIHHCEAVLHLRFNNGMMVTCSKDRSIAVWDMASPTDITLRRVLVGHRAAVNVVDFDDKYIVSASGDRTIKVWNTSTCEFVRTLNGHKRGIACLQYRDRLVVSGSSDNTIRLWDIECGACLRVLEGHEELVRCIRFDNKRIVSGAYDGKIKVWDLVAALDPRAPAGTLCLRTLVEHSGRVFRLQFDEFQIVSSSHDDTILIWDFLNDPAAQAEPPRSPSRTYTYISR
UniProt Q7KYR7: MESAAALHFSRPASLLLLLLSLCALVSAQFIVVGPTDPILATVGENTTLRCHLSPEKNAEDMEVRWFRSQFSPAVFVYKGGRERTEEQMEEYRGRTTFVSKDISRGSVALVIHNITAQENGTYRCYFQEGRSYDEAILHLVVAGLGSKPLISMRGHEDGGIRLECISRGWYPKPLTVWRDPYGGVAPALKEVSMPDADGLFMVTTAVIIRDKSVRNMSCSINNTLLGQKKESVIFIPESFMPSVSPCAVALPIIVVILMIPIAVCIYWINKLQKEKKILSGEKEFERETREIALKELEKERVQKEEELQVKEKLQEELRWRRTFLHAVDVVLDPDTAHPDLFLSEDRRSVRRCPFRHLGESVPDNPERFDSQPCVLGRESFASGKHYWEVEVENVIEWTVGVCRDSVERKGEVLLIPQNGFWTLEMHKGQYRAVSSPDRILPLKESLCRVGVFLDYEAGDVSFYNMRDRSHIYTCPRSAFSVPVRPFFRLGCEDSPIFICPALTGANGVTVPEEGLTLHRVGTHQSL
UniProt Q9BSF8: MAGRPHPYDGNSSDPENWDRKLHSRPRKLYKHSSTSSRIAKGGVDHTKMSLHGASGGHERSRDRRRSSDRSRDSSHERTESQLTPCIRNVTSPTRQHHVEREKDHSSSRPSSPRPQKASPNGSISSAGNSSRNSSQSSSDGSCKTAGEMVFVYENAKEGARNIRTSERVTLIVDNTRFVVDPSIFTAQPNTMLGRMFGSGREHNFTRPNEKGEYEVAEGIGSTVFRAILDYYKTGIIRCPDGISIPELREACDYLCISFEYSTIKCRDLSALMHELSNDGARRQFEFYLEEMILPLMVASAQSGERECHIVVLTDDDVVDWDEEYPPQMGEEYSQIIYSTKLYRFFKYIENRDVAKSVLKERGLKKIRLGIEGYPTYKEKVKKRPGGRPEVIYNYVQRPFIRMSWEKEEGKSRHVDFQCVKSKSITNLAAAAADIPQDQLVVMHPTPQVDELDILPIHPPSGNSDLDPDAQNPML

Key:
Experiment in all cases: log2 fold change, soluble protein after heating vs DMSO (PISA); higher = thermal stabilisation; K562 cells, 10 uM, 30 min; active = over 0.2 and 3.5 SD of the protein, either way, in both replicates (recomputed)
saracatinib = compound: CN1CCN(CCOc2cc(OC3CCOCC3)c3c(Nc4c(Cl)ccc5c4OCO5)ncnc3c2)CC1 [saracatinib]
Method in brief: (§1)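 Aliquots of K562 cells (2×10^6 cells/mL) treated with 10 μM compound for 30 min were heated for 3 min over 48°C-58°C. After pooling and extraction in PBS with 0.5% NP-40 at 4°C, soluble protein from a 21,000xg, 90 min spin was quantified by TMTpro 16plex LC-MS/MS with channel sums equalised. Thermal stability is expressed against control samples, from duplicates, as a log2 fold change.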

sotrastaurin = compound: CN1CCN(c2nc(C3=C(c4c[nH]c5ccccc45)C(=O)NC3=O)c3ccccc3n2)CC1 [sotrastaurin]
Method in brief: as §1

alvocidib = compound: CN1CC[C@H](c2c(O)cc(O)c3c(=O)cc(-c4ccccc4Cl)oc23)[C@H](O)C1 [alvocidib]
Method in brief: as §1

[1] = compound: CNC(=O)C1=CC=CC=C1NC2=NC(=NC=C2Cl)NC3=C(C=C(C=C3)N4CCOCC4)OC
Method in brief: as §1

defactinib = compound: CNC(=O)c1ccc(Nc2ncc(C(F)(F)F)c(NCc3nccnc3N(C)S(C)(=O)=O)n2)cc1 [defactinib]
Method in brief: as §1

rucaparib = compound: CNCc1ccc(-c2[nH]c3cc(F)cc4c3c2CCNC4=O)cc1 [rucaparib]
Method in brief: as §1

[2] = compound: CNc1nc(-c2ccc3c(N)n[nH]c3c2)cc(N2C[C@@H](C(=O)NC3CCCCC3)CC[C@H]2C)n1
Method in brief: as §1

encorafenib = compound: COC(=O)N[C@@H](C)CNc1nccc(-c2cn(C(C)C)nc2-c2cc(Cl)cc(NS(C)(=O)=O)c2F)n1 [encorafenib]
Method in brief: as §1

[3] = compound: COC(=O)[C@H](CCSC)NC(=O)C1=C(C=C(C=C1)NC[C@H](CS)N)C2=CC=CC=C2
Method in brief: as §1

[4] = compound: COC1=CC=C(C=C1)CN2C=CC3=C2C=C(C=C3)C(=O)NO
Method in brief: as §1

filanesib = compound: CON(C)C(=O)N1N=C(c2cc(F)ccc2F)S[C@@]1(CCCN)c1ccccc1 [filanesib]
Method in brief: as §1

zotarolimus = compound: CO[C@H]1C[C@@H]2CC[C@@H](C)[C@@](O)(O2)C(=O)C(=O)N2CCCC[C@H]2C(=O)O[C@H]([C@H](C)C[C@@H]2CC[C@H](n3cnnn3)[C@H](OC)C2)CC(=O)[C@H](C)/C=C(\C)[C@@H](O)[C@@H](OC)C(=O)[C@H](C)C[C@H](C)/C=C/C=C/C=C/1C [zotarolimus]
Method in brief: as §1

idasanutlin = compound: COc1cc(C(=O)O)ccc1NC(=O)[C@@H]1N[C@@H](CC(C)(C)C)[C@](C#N)(c2ccc(Cl)cc2F)[C@H]1c1cccc(Cl)c1F [idasanutlin]
Method in brief: as §1

alisertib = compound: COc1cc(Nc2ncc3c(n2)-c2ccc(Cl)cc2C(c2c(F)cccc2OC)=NC3)ccc1C(=O)O [alisertib]
Method in brief: as §1

gefitinib = compound: COc1cc2ncnc(Nc3ccc(F)c(Cl)c3)c2cc1OCCCN1CCOCC1 [gefitinib]
Method in brief: as §1

[5] = compound: COc1cccc2cc(-c3nc([C@H]4CC[C@H](C(=O)O)CC4)n4ncnc(N)c34)[nH]c12
Method in brief: as §1

Tubastatin A = compound: CN1CCc2c(c3ccccc3n2Cc2ccc(C(=O)NO)cc2)C1 [Tubastatin A]
Method in brief: as §1

[6] = compound: COc1cc2nc(-c3cc(F)ccc3O)nc(N[C@@H]3CNC[C@H]3C(C)(C)O)c2cc1OC
Method in brief: as §1

lapatinib = compound: CS(=O)(=O)CCNCc1ccc(-c2ccc3ncnc(Nc4ccc(OCc5cccc(F)c5)c(Cl)c4)c3c2)o1 [lapatinib]
Method in brief: as §1

pictilisib = compound: CS(=O)(=O)N1CCN(Cc2cc3nc(-c4cccc5[nH]ncc45)nc(N4CCOCC4)c3s2)CC1 [pictilisib]
Method in brief: as §1

Measured: log2 fold change

C12orf65 (UniProt Q9H3J6)
inactive: saracatinib 0.11 | sotrastaurin 0.068 | alvocidib 0.354 | [1] 0.024 | defactinib 0.078 | rucaparib 0.069 | [2] 0.07 | encorafenib 0.034 | [3] 0.066 | [4] -0.132 | filanesib 0.082 | zotarolimus 0.031 | idasanutlin 0.131 | alisertib -0.189 | gefitinib 0.003 | [5] -0.153

C19orf53 (UniProt Q9UNZ5)
inactive: saracatinib -0.069 | sotrastaurin -0.03 | Tubastatin A 0.129 | [1] 0.155 | defactinib 0.296 | rucaparib 0.257 | [2] 0.053 | encorafenib 0.136 | [3] 0.036 | [4] -0.225 | filanesib 0.375 | zotarolimus 0.042 | idasanutlin 0.209 | alisertib -0.086 | [6] -0.067 | gefitinib -0.045 | [5] -0.167 | lapatinib 0.184 | pictilisib -0.073

C1orf167 isoform 2 (UniProt Q5SNV9)
inactive: saracatinib -0.419 | sotrastaurin 0.017 | alvocidib 0.193 | [1] -0.152 | defactinib 0.166 | [2] -0.08 | [3] -0.085 | [4] 0.043 | filanesib 0.253 | zotarolimus -0.064 | alisertib 0.001 | [6] 0.392 | gefitinib -0.061 | [5] -0.001 | lapatinib -0.117

CALCOCO1 (UniProt Q9P1Z2)
inactive: saracatinib 0.025 | alvocidib -0.047 | Tubastatin A 0.008 | [1] -0.006 | defactinib -0.062 | rucaparib 0.004 | [2] -0.003 | encorafenib -0.067 | [3] 0.013 | [4] 0.004 | zotarolimus 0 | alisertib -0.055 | [6] 0.027 | gefitinib -0.225 | [5] -0.017 | lapatinib 0.064 | pictilisib -0.101

C19orf57 (UniProt Q0VDD7)
inactive: saracatinib -0.002 | alvocidib -0.013 | [1] 0.03 | defactinib 0.092 | [2] 0.115 | [3] -0.002 | [4] -0.06 | zotarolimus -0.098 | idasanutlin -0.005 | pictilisib -0.089

C5 (UniProt P01031)
inactive: sotrastaurin 0.333 | alvocidib -0.005 | Tubastatin A -0.013 | defactinib 0.113 | [3] 0.132 | [4] -0.216 | filanesib 0.222 | zotarolimus 0.038 | pictilisib 0.189

CAMK2A isoform 2 (UniProt Q9UQM7)
inactive: saracatinib -0.043 | [2] 0.099

CA1 (UniProt E5RIF9)
inactive: saracatinib 0.272 | Tubastatin A -0.178 | defactinib -0.09 | [2] 0.093 | [3] -0.129

C19orf54 (UniProt Q5BKX5)
inactive: saracatinib 0.049 | sotrastaurin -0.221 | Tubastatin A 0.092 | [1] 0.002 | defactinib -0.136 | rucaparib 0.255 | [2] -0.108 | encorafenib 0.005 | [3] -0.031 | [4] -0.025 | filanesib -0.278 | zotarolimus 0.024 | idasanutlin -0.094 | [6] 0.123 | lapatinib -0.125 | pictilisib 0.053

C9orf16 (UniProt Q9BUW7)
inactive: saracatinib 0.078 | [2] -0.063 | alisertib -0.069 | gefitinib -0.005 | [5] 0 | pictilisib 0.003

C22orf39 (UniProt Q6P5X5)
inactive: saracatinib 0.076 | sotrastaurin -0.028 | Tubastatin A -0.013 | [1] 0.129 | [2] 0.056 | [4] 0.02 | filanesib -0.043 | zotarolimus -0.014 | idasanutlin 0.119 | alisertib -0.025 | [6] -0.344 | gefitinib 0.058 | [5] -0.006 | lapatinib 0.077

CARD19 isoform 2 (UniProt Q96LW7)
inactive: saracatinib 0.027 | alvocidib -0.102 | Tubastatin A 0.095 | defactinib 0.125 | rucaparib 0.034 | [2] -0.023 | encorafenib 0.046 | [3] 0.053 | [4] -0.026 | zotarolimus 0.003 | idasanutlin -0.037 | alisertib 0.063 | [5] -0.077 | pictilisib -0.067

CALM1 (UniProt G3V361)
inactive: saracatinib 0.13 | sotrastaurin -0.067 | [1] -0.105 | [2] 0.079 | filanesib -0.138

C1orf112 (UniProt Q9NSG2)
inactive: saracatinib -0.237 | sotrastaurin -0.119 | Tubastatin A 0.024 | defactinib -0.052 | rucaparib -0.008 | [2] -0.113 | encorafenib -0.097 | [3] -0.005 | filanesib 0.065 | idasanutlin -0.049 | [6] -0.143 | lapatinib 0.021 | pictilisib -0.1

C1D (UniProt Q13901)
inactive: sotrastaurin 0.005 | Tubastatin A 0.079 | [1] 0.001 | defactinib 0.042 | rucaparib -0.005 | encorafenib 0.009 | [3] 0.091 | [4] -0.171 | filanesib -0.041 | idasanutlin 0.12 | alisertib -0.138 | [6] -0.101 | gefitinib 0.043 | [5] -0.027 | lapatinib 0.006 | pictilisib 0.012

2 consecutive entries already listed:
CALM1 (UniProt G3V361)
inactive: saracatinib 0.13 | sotrastaurin -0.067 | [1] -0.105 | [2] 0.079 | filanesib -0.138

C1orf112 (UniProt Q9NSG2)
inactive: saracatinib -0.237 | sotrastaurin -0.119 | Tubastatin A 0.024 | defactinib -0.052 | rucaparib -0.008 | [2] -0.113 | encorafenib -0.097 | [3] -0.005 | filanesib 0.065 | idasanutlin -0.049 | [6] -0.143 | lapatinib 0.021 | pictilisib -0.1

Further entries:

C7orf50 (UniProt Q9BRJ6)
inactive: saracatinib -0.129 | alvocidib 0.023 | Tubastatin A 0.076 | defactinib 0.073 | [2] 0.028 | [3] -0.062 | zotarolimus 0.119 | idasanutlin 0.159

CALML3 (UniProt P27482)
inactive: saracatinib -0.128 | Tubastatin A -0.052 | rucaparib 0.079 | [2] 0.089 | encorafenib -0.043 | idasanutlin 0.527 | alisertib 1.72 | [6] -0.277 | [5] -0.19 | lapatinib 0.108

BTRC (UniProt Q9Y297)
inactive: saracatinib 0.067 | sotrastaurin -0.042 | Tubastatin A 0.087 | [1] -0.069 | defactinib -0.042 | [2] -0.092 | [3] -0.017 | [4] -0.1 | filanesib -0.064 | idasanutlin -0.659 | alisertib 0.131 | [6] -0.25 | gefitinib 0.083 | [5] -0.051 | lapatinib -0.063 | pictilisib -0.102

CA2 (UniProt P00918)
inactive: saracatinib -0.128 | Tubastatin A -0.013 | [1] 0.002 | defactinib -0.002 | rucaparib -0.055 | [2] 0.103 | encorafenib 0.089 | [3] 0.038 | idasanutlin 0.156 | alisertib 0.253 | [6] -0.063 | gefitinib 0.04 | [5] 0.036 | lapatinib -0.261

CALD1 (UniProt Q05682)
inactive: sotrastaurin 0.008 | alvocidib 0 | [1] -0.087 | [4] -0.008 | filanesib 0.009 | zotarolimus -0.617 | [6] -0.079 | lapatinib 0.136 | pictilisib 0.104

BTN2A1 (UniProt Q7KYR7)
inactive: saracatinib -0.084 | alvocidib -0.094 | Tubastatin A 0.047 | [1] 0.015 | defactinib -0.086 | rucaparib -0.004 | [2] 0.092 | encorafenib -0.082 | [3] 0.093 | [4] 0.037 | zotarolimus 0.01 | [6] 0.116 | gefitinib -0.005 | lapatinib 0.111 | pictilisib -0.032

BTBD10 isoform 2 (UniProt Q9BSF8)
inactive: saracatinib -0.191 | [2] -0.014 | idasanutlin 0.127 | [6] 0.193 | lapatinib -0.32 | pictilisib 0.06
